# The name of at least one read-out is uncertain.
# Test: Study 101 Phase 1: plasma glyburide pharmacokinetics, bolus plus 72 h continuous infusion of RP-1127
# Assay type: in vivo, human
# Method: All plasma concentration data were analyzed by nonlinear regression, simultaneously incorporating drug behavior during and after the infusion.
smiles,measurement,setting,value
"COc1ccc(Cl)cc1C(=O)NCCc1ccc(S(=O)(=O)NC(=O)NC2CCCCC2)cc1 [Glyburide, 5-chloro-N-(4-[N-(cyclohexylcarbamoyl)sulfamoyl]phenethyl)-2-methoxybenzamide]",Time at which Cmax occurred,0.4 mg/day,72 h
same,Time at which Cmax occurred,"3 mg/day, one patient",48 h

# From US10786445B2 (BIOGEN CHESAPEAKE LLC, priority 2010, dated 2020)
